Results taken from US7183260B2, “C-terminal modified oxamyl dipeptides as inhibitors of the ICE/ced-3 family of cysteine proteases” (Idun Pharmaceuticals, Inc., priority 1998, dated 2007).
The structures given here were assigned with low confidence; some may be wrong.

The chains behind the UniProt entries cited, without tags or fusion partners. Residues count along the entry.
UniProt P29452, 123-296 limits assumed: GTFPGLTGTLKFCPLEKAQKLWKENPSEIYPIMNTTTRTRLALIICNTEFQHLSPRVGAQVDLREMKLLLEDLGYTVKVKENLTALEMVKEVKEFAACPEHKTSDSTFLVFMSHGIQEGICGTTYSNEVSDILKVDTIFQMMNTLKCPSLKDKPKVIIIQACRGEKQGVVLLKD
UniProt P29452, 315-402 limits assumed: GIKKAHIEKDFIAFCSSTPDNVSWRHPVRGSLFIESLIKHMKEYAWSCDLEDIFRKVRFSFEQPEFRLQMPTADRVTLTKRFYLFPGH
UniProt P42574, 29-175 limits assumed: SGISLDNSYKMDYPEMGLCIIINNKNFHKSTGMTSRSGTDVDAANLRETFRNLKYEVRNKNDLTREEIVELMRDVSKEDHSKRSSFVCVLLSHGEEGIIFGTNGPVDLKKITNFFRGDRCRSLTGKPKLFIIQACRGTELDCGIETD
UniProt P42574, 176-277 limits assumed: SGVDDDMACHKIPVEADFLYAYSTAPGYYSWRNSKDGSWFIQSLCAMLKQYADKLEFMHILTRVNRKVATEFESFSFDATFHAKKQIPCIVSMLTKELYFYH
UniProt P55212, 24-179 limits assumed: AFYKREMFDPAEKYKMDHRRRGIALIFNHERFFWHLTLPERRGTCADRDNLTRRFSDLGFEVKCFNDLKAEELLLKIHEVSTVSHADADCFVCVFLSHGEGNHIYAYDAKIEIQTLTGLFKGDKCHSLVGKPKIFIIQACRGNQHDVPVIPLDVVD
UniProt P55212, 194-293 limits assumed: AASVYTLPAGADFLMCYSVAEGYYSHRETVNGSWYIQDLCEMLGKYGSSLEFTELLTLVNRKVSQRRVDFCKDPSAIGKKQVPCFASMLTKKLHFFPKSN
UniProt P55210, 24-198 limits assumed: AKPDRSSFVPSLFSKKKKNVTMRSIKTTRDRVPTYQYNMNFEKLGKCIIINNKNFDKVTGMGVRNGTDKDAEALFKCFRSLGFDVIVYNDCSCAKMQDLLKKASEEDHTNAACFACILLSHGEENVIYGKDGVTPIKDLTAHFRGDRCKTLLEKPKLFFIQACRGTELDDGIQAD
UniProt P55210, 207-303 limits assumed: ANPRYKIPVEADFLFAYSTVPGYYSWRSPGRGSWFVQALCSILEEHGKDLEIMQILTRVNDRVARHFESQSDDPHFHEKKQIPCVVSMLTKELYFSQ
UniProt Q14790, 217-374 limits assumed: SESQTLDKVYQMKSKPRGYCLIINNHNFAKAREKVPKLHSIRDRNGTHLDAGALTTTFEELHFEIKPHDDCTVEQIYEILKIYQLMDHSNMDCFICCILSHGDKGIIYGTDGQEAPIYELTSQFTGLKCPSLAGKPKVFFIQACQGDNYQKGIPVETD
UniProt Q14790, 385-479 limits assumed: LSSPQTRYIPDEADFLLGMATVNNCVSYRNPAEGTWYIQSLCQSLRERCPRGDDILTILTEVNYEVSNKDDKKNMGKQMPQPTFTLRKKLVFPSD

What was measured:
[1] = molecular target: T1, mICE (Mus musculus, UniProt P29452); test: Fluorescence enzyme assay, determination of IC50 values (ICE); conditions: read-out: mICE IC50; recombinant enzyme, 30 min preincubation, substrate Acetyl-Tyr-Val-Ala-Asp-AMC, room temperature
[2] = molecular target: T2, CPP32 (Homo sapiens, UniProt P42574); test: Fluorescence enzyme assay, determination of IC50 values (CPP32); conditions: read-out: CPP32 IC50; recombinant enzyme, 30 min preincubation, substrate Acetyl-Asp-Glu-Val-Asp-AMC, room temperature
[3] = molecular target: T3, MCH-2 (Homo sapiens, UniProt P55212); test: Fluorescence enzyme assay, determination of IC50 values (Mch2); conditions: read-out: MCH-2 IC50; 30 min preincubation, substrate Acetyl-Asp-Glu-Val-Asp-AMC, room temperature
[4] = molecular target: MCH-3 (Homo sapiens, UniProt P55210); test: Fluorescence enzyme assay, determination of IC50 values (Mch3); conditions: read-out: MCH-3 IC50; 30 min preincubation, substrate Acetyl-Asp-Glu-Val-Asp-AMC, room temperature
[5] = molecular target: T4, MCH-5 (Homo sapiens, UniProt Q14790); test: Fluorescence enzyme assay, determination of IC50 values (Mch5); conditions: read-out: MCH-5 IC50; 30 min preincubation, substrate Acetyl-Asp-Glu-Val-Asp-AMC, room temperature
[6] = molecular target: T1, mICE; test: Dissociation constant Ki and irreversible rate constant k3 for irreversible inhibitors (ICE); type: biochemical; conditions: continuous assay 60 min, reaction initiated by adding enzyme to substrate-inhibitor mixture; for Ki: read-out: mICE Ki
[7] = molecular target: T2, CPP32; test: Dissociation constant Ki and irreversible rate constant k3 for irreversible inhibitors (CPP32); type: biochemical; conditions: continuous assay 60 min, reaction initiated by adding enzyme to substrate-inhibitor mixture; for Ki: read-out: CPP32 Ki
[8] = molecular target: T3, MCH-2; test: Dissociation constant Ki and irreversible rate constant k3 for irreversible inhibitors (Mch2); type: biochemical; conditions: continuous assay 60 min, reaction initiated by adding enzyme to substrate-inhibitor mixture; for Ki: read-out: MCH-2 Ki
[9] = molecular target: T4, MCH-5; test: Dissociation constant Ki and irreversible rate constant k3 for irreversible inhibitors (Mch5); type: biochemical; conditions: continuous assay 60 min, reaction initiated by adding enzyme to substrate-inhibitor mixture; for Ki: read-out: MCH-5 Ki

IC50 [1] [nM] | IC50 [2] [nM] | IC50 [3] [nM] | IC50 [4] [nM] | IC50 [5] [nM] | mICE k3/Ki [6] | Ki [6] [nM] | CPP32 k3/Ki [7] | Ki [7] [nM] | MCH-2 k3/Ki [8] | Ki [8] [nM] | MCH-5 k3/Ki [9] | Ki [9] [nM] | Structure (SMILES)
59 | 1380 | 3530 | 1130 | 322 | – | – | – | – | – | – | – | – | CC(C)[C@H](NC(=O)C(=O)Nc1ccccc1-c1nnn[nH]1)C(=O)N[C@H](C=O)CC(=O)O
– | – | – | – | – | 835,000 moles^−1 seconds^−1 | 18 | 21,500 moles^−1 seconds^−1 | 472 | 20,800 moles^−1 seconds^−1 | 70 | 169,000 moles^−1 seconds^−1 | 7.4 | C[S+]([O-])CC[C@H](NC(=O)C(=O)Nc1cccc2ccccc12)C(=O)N[C@@H](CC(=O)O)C(=O)COc1c(F)c(F)cc(F)c1F (single isomer, unassigned) [110A]
– | – | – | – | – | 1,010,000 moles^−1 seconds^−1 | 17 | 81,900 moles^−1 seconds^−1 | 104 | 41,700 moles^−1 seconds^−1 | 80 | 180,000 moles^−1 seconds^−1 | 7.8 | C[S+]([O-])CC[C@H](NC(=O)C(=O)Nc1cccc2ccccc12)C(=O)N[C@@H](CC(=O)O)C(=O)COc1c(F)c(F)cc(F)c1F (single isomer, unassigned) [110B]
